Assay results published in the supplement of paper PMC10849652.
The other results are listed elsewhere or left out.

The chains behind the UniProt entries cited, without tags or fusion partners. Where a name states a change or a piece, a line headed by the entry shows the natural chain unless it says otherwise.
UniProt Q8IX04: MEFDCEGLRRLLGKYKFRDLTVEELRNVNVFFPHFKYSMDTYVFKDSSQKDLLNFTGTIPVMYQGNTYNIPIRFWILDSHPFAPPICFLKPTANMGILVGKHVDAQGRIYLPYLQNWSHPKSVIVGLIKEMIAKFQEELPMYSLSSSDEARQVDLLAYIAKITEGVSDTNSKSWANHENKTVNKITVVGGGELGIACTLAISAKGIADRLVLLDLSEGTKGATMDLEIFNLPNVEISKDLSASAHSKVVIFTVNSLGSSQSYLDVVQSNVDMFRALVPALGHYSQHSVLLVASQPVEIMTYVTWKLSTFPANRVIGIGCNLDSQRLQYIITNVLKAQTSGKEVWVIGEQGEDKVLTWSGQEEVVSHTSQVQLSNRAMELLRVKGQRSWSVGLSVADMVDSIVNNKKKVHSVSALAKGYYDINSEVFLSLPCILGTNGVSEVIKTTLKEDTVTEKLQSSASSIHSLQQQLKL
UniProt P13051, whole entry, looked up: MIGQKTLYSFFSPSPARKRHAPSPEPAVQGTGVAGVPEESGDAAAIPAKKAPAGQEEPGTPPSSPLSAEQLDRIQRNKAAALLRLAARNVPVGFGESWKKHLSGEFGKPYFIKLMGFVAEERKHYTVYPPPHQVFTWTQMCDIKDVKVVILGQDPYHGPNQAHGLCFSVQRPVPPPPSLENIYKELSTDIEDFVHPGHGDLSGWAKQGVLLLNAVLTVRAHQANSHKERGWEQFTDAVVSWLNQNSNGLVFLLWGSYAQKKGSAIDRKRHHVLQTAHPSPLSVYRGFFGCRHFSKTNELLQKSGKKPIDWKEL
UniProt Q6UW78: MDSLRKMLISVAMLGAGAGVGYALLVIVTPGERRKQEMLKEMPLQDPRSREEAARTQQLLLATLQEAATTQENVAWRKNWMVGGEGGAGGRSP
UniProt O94966: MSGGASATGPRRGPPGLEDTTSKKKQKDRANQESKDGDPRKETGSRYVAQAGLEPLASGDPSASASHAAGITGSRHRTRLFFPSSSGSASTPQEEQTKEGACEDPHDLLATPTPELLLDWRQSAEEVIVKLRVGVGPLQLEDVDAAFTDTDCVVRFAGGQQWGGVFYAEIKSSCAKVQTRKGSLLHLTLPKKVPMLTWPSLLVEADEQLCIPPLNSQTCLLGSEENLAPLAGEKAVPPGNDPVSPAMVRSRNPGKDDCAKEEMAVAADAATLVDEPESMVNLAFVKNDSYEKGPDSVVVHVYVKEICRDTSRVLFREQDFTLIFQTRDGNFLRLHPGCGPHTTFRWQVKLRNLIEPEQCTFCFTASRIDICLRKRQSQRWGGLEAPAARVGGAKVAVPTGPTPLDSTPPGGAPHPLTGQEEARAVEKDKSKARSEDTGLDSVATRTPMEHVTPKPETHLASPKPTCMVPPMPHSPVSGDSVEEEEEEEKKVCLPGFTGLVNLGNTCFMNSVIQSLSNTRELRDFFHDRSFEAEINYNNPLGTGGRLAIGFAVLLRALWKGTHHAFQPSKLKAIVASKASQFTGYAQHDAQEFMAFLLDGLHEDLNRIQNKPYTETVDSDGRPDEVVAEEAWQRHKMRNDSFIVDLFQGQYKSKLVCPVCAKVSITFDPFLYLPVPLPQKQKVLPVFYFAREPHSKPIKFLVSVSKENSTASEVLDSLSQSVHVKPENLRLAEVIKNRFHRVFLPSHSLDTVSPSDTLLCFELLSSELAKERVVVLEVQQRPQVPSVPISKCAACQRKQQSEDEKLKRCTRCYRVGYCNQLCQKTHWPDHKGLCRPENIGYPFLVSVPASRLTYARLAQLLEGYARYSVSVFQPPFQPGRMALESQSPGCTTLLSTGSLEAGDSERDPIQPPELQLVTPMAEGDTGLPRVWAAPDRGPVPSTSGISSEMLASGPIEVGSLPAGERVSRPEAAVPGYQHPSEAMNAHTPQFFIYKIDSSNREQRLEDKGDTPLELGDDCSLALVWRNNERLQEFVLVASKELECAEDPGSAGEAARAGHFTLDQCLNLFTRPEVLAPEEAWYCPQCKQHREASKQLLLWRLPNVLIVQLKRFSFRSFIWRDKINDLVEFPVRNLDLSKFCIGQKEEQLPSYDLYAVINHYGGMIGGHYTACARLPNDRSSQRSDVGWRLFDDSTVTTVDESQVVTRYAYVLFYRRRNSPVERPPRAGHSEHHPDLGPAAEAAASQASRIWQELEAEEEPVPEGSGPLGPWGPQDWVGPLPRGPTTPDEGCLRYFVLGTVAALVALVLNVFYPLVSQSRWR

How the values were obtained:
Experiment in all cases: log2 fold change, soluble protein after heating vs DMSO (PISA); higher = thermal stabilisation; K562 lysate, 10 uM; active = over 0.2 and 3.5 SD of the protein, either way, in both replicates (recomputed)
erlotinib = compound: C#Cc1cccc(Nc2ncnc3cc(OCCOC)c(OCCOC)cc23)c1 [erlotinib]
How it was run: (§1)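 Following dounce homogenisation of K562 pellets in PBS pH 7.4 with 1 mM MgCl2, crude extract at 1 mg/mL protein was incubated for 30 min with 10 μM compound. Aliquots were then heated for 3 min over 48°C-58°C and pooled, NP-40 was added to 0.5% at 4°C, and soluble protein was recovered as the supernatant at 21,000xg for 90 min. Channel-sum-equalised TMTpro 16plex LC-MS/MS quantified this protein. Each value, from duplicates, is a log-two fold change in thermal stability relative to solvent controls.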

[1] = compound: C/C(=N\NC(=O)C1=CC(=CC=C1)S(=O)(=O)N2CCOCC2)/C3=C(C=CC(=C3)Cl)O
How it was run: as §1

[2] = compound: C1=CC(=CC=C1C2=NC3=C(N2)C=C(C=C3)C(=O)N)OC4=CC=C(C=C4)Cl
How it was run: as §1

[3] = compound: C1=CC2=C(C=CC(=C2)/C=C\3/C(=O)NC(=NCC4=CC=CS4)S3)N=C1
How it was run: as §1

[4] = compound: C1=CC2=NC=CN=C2C=C1/C=C/3\C(=O)NC(=O)S3
How it was run: as §1

[5] = compound: C1=CC=C(C=C1)C2=NC(=C(N2)C3=CC=NC=C3)C4=CC(=C(C=C4)Cl)O
How it was run: as §1

[6] = compound: C1=CC=C2C(=C1)C3=NNC4=CC=CC(=C43)C2=O
How it was run: as §1

[7] = compound: C1CCN(C1)C(=O)NC2=CC=CC(=C2)NC3=NC=C(C(=N3)NCCC4=CN=CN4)Br
How it was run: as §1

[8] = compound: C1CN(CCC1(CC2=CC=C(C=C2)Cl)N)C3=NC=NC4=C3C=CN4
How it was run: as §1

IRAK-1-4 Inhibitor I = compound: C1COCCN1CCN2C3=CC=CC=C3N=C2NC(=O)C4=CC(=CC=C4)[N+](=O)[O-] [IRAK-1-4 Inhibitor I]
How it was run: as §1

ibrutinib = compound: C=CC(=O)N1CCC[C@@H](n2nc(-c3ccc(Oc4ccccc4)cc3)c3c(N)ncnc32)C1 [ibrutinib]
How it was run: as §1

[9] = compound: CC(=O)c1cnc2ccc(-c3cc(Cl)c(O)c(Cl)c3)nc2c1N[C@H]1CC[C@H](CN(C)C)CC1
How it was run: as §1

ralimetinib = compound: CC(C)(C)Cn1c(N)nc2ccc(-c3[nH]c(C(C)(C)C)nc3-c3ccc(F)cc3)nc21 [ralimetinib]
How it was run: as §1

[10] = compound: CC(C)(O)CC(=O)NCCn1ccc2ncnc(Nc3ccc(Oc4cccc(C(F)(F)F)c4)c(Cl)c3)c21
How it was run: as §1

[11] = compound: CC(C)C1=C2N=C(C=C(N2N=C1)NCC3=CC=CC=C3)NCCCCCCN
How it was run: as §1

[12] = compound: CC1=C(C(CC(=O)N1)C2=CC=C(C=C2)C(F)(F)F)C(=O)NC3=C(C=C4C(=C3)C=NN4)F
How it was run: as §1

[13] = compound: CC1=C(C2=C(C=C1)C(=O)C3=CC=CC=C3N2CCCN)C
How it was run: as §1

[14] = compound: CC1=C(C=C(C=C1)NC(=O)C2=CC(=CC=C2)C(C)(C)C#N)NC3=CC4=C(C=C3)N=CN(C4=O)C
How it was run: as §1

[15] = compound: CC1=C(C=C(C=C1)NC(=O)C2=CC(=CC=C2)N(C)C)NC(=O)C3=CC=C(C=C3)O
How it was run: as §1

[16] = compound: CC1=CC=C(C=C1)SC2=C3C=C(SC3=CN=C2)C(=O)N
How it was run: as §1

Measured: log2 fold change

UEVLD (UniProt Q8IX04)
inactive: erlotinib -0.032 | [1] 0.06 | [2] 0.022 | [3] 0.023 | [4] -0.018 | [5] -0.058 | [6] -0.059 | [7] 0.105 | [8] 0.112 | IRAK-1-4 Inhibitor I -0.003 | ibrutinib -0.016 | [9] 0.007 | ralimetinib 0 | [10] -0.094 | [11] 0.026 | [12] -0.059 | [13] 0.039 | [14] 0.023 | [15] 0.01 | [16] -0.016

VEZT (UniProt F8W8C2)
inactive: erlotinib 0.018 | [1] 0.03 | [2] -0.069 | [3] -0.139 | [4] 0.038 | [5] 0.046 | [6] -0.136 | [7] -0.087 | [8] 0.076 | IRAK-1-4 Inhibitor I -0.001 | ibrutinib 0.094 | [9] 0.05 | ralimetinib 0.158 | [10] -0.079 | [11] 0.007 | [14] -0.512 | [15] 0.116 | [16] -0.081

UNG (UniProt P13051)
inactive: erlotinib -0.186 | [2] -0.012 | [4] 0.205 | [5] -0.074 | [7] 0.105 | [8] 0.04 | IRAK-1-4 Inhibitor I 0.005 | ibrutinib 0.061 | ralimetinib 0.145 | [10] 0.014 | [11] -0.019 | [13] 0.02 | [15] 0.033

VDAC2 (UniProt Q5JSD1)
inactive: erlotinib 0.058 | [1] 0 | [2] 0.057 | [3] 0.074 | [4] 0.032 | [5] -0.001 | [6] -0.025 | [7] -0.032 | [8] 0.029 | IRAK-1-4 Inhibitor I 0.033 | [9] -0.01 | ralimetinib 0.01 | [10] -0.061 | [11] -0.031 | [12] -0.02 | [13] -0.048 | [14] 0.031 | [15] 0.043 | [16] -0.074

VARS2, A0A0G2JL52
inactive: erlotinib 0.031 | [1] 0.069 | [2] 0.014 | [3] -0.017 | [4] -0.006 | [5] 0.06 | [6] -0.044 | [7] 0.026 | [8] 0.012 | IRAK-1-4 Inhibitor I -0.01 | ibrutinib 0.024 | [9] 0.012 | ralimetinib -0.042 | [10] -0.056 | [11] -0.022 | [12] -0.09 | [13] -0.007 | [14] -0.021 | [15] -0.006 | [16] -0.005

UQCC3 (UniProt Q6UW78)
inactive: erlotinib 0.09 | [1] 0.063 | [2] -0.085 | [3] 0.19 | [4] -0.026 | [5] -0.03 | [6] -0.336 | [7] 0.02 | [8] -0.25 | IRAK-1-4 Inhibitor I -0.192 | ibrutinib 0.2 | [9] -0.202 | ralimetinib 0.147 | [10] -0.11 | [11] -0.015 | [13] 0.099 | [15] -0.212 | [16] 0.085

USP19 isoform 4 (UniProt O94966)
inactive: erlotinib 0.043 | [1] -0.046 | [2] 0.029 | [3] 0.187 | [5] -0.174 | [6] -0.232 | [7] 0.047 | [8] 0 | IRAK-1-4 Inhibitor I 0.045 | [9] 0.013 | ralimetinib -0.096 | [10] -0.06 | [11] 0.054 | [13] -0.1 | [15] 0.038 | [16] -0.147
